{"source": "the supplement of paper PMC12889115", "test_system": "Salmonella enterica serovar Typhimurium SL1344", "assay": "bacterial growth OD600 after 18 h with compound and polymyxin B; higher = more bacterial growth (less inhibition)", "details": "50 µM, Mueller-Hinton broth", "note": "This is one part of the list. Values are raw readings; no control value is given beside them.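 First-pass screen: polymyxin B was added at a level that permeabilizes the Salmonella outer membrane while sparing the inner membrane. DMSO wells, with and without polymyxin B, defined maximum growth. Because plates differed from one another, each plate's data were ranked separately and the compounds with the lowest OD600 were carried forward as hits.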"}
{"smiles": "CCN(Cc1cnc(SC)nc1)CC1CCCN(CCc2cccc(OC)c2)C1", "note": "(stereo unspecified)", "values": [{"measurement": "bacterial growth OD600", "setting": "polymyxin B 1 µg/mL", "result": 0.861}]}
{"smiles": "CC(=O)Nc1ccc(CN2CCCCC2C(=O)Nc2ccc(-n3cccn3)cc2)cc1", "note": "(stereo unspecified)", "values": [{"measurement": "bacterial growth OD600", "setting": "polymyxin B 1 µg/mL", "result": 0.945}]}
{"smiles": "C/C=C(\\C)CN1CCC(Oc2ccc(C(=O)NCCN(C)C)cc2Cl)CC1", "values": [{"measurement": "bacterial growth OD600", "setting": "polymyxin B 1 µg/mL", "result": 1.12}]}
{"smiles": "COc1ccccc1C1CN(Cc2coc3ccccc3c2=O)Cc2ccccc2O1", "note": "(stereo unspecified)", "values": [{"measurement": "bacterial growth OD600", "setting": "polymyxin B 0.75 µg/mL", "result": 0.881}]}
{"smiles": "Cc1cccc(C)c1Oc1ncccc1CNC(=O)C(C)n1ccnc1", "note": "(stereo unspecified)", "values": [{"measurement": "bacterial growth OD600", "setting": "polymyxin B 1 µg/mL", "result": 1.08}]}
{"smiles": "Cc1c(-c2ccccc2F)[nH]c2ccc(CNC(=O)C3CCCN(C(N)=O)C3)cc12", "note": "(stereo unspecified)", "values": [{"measurement": "bacterial growth OD600", "setting": "polymyxin B 1 µg/mL", "result": 0.772}]}
{"smiles": "COc1ccc(NC2CCCN(C(=O)c3ccc(CSC)o3)C2)cc1OC", "note": "(stereo unspecified)", "values": [{"measurement": "bacterial growth OD600", "setting": "polymyxin B 1 µg/mL", "result": 0.867}]}
{"smiles": "COc1ccc(CCN2CCCC(CN(C)Cc3cccc(C(C)=O)c3)C2)cc1", "note": "(stereo unspecified)", "values": [{"measurement": "bacterial growth OD600", "setting": "polymyxin B 0.75 µg/mL", "result": 0.797}]}
{"smiles": "CCOC(=O)C1(CCCc2ccccc2)CCN(C(=O)c2cncs2)CC1", "values": [{"measurement": "bacterial growth OD600", "setting": "polymyxin B 1 µg/mL", "result": 0.711}]}
{"smiles": "CCOC(=O)C1(Cc2ccccc2)CCCN(S(=O)(=O)N(C)C)C1", "note": "(stereo unspecified)", "values": [{"measurement": "bacterial growth OD600", "setting": "polymyxin B 1 µg/mL", "result": 0.934}]}
{"smiles": "O=C(NC1CC(=O)N(CCCc2ccccc2)C1)C1CCC1", "note": "(stereo unspecified)", "values": [{"measurement": "bacterial growth OD600", "setting": "polymyxin B 1 µg/mL", "result": 0.911}]}
{"smiles": "O=C(CCC1(Cc2ccc(Cl)cc2)CCC(=O)N1)NCCCc1ccccc1", "note": "(stereo unspecified)", "values": [{"measurement": "bacterial growth OD600", "setting": "polymyxin B 0.75 µg/mL", "result": 0.812}]}
{"smiles": "C/C=C(\\C)CN1CCC2(CC1)c1ccccc1[C@@H](NC(=O)c1cccc(F)c1)[C@@H]2OC", "values": [{"measurement": "bacterial growth OD600", "setting": "polymyxin B 0.75 µg/mL", "result": 0.801}]}
{"smiles": "O=C(NC1CCCN(C2Cc3ccccc3C2)C1)C1(N2CCOCC2)CCCCC1", "note": "(stereo unspecified)", "values": [{"measurement": "bacterial growth OD600", "setting": "polymyxin B 0.75 µg/mL", "result": 0.819}]}
{"smiles": "CCO[C@H]1[C@H](NC(=O)c2cccnc2)c2ccccc2C12CCN(C(=O)C1CCCCC1)CC2", "values": [{"measurement": "bacterial growth OD600", "setting": "polymyxin B 0.75 µg/mL", "result": 0.829}]}
{"smiles": "O=C(NCc1cccs1)C1CC12CCN(Cc1cccc3nccnc13)CC2", "note": "(stereo unspecified)", "values": [{"measurement": "bacterial growth OD600", "setting": "polymyxin B 0.75 µg/mL", "result": 0.788}]}
{"smiles": "OC1CCCN(c2ccc(-c3nc(Cc4ccc(Cl)cc4)no3)cn2)C1", "note": "(stereo unspecified)", "values": [{"measurement": "bacterial growth OD600", "setting": "polymyxin B 1 µg/mL", "result": 0.955}]}
{"smiles": "Fc1ccc(CC2CCN(Cc3nc(CC4CC4)no3)CC2)cc1", "values": [{"measurement": "bacterial growth OD600", "setting": "polymyxin B 1 µg/mL", "result": 0.827}]}
{"smiles": "COCCO[C@H]1[C@H](NC(=O)C(C)C)c2ccccc2C12CCN(C(=O)Cc1ccsc1)CC2", "values": [{"measurement": "bacterial growth OD600", "setting": "polymyxin B 0.75 µg/mL", "result": 0.823}]}
{"smiles": "COC(=O)CCC(=O)N1CCCC(CCC(=O)Nc2cc(OC)cc(OC)c2)C1", "note": "(stereo unspecified)", "values": [{"measurement": "bacterial growth OD600", "setting": "polymyxin B 1 µg/mL", "result": 0.954}]}
{"smiles": "CNc1ccc(C(=O)NCCC2COc3ccccc3O2)cn1", "note": "(stereo unspecified)", "values": [{"measurement": "bacterial growth OD600", "setting": "polymyxin B 1 µg/mL", "result": 0.968}]}
{"smiles": "COCC(=O)Nc1cc(C(=O)NC(CCSC)C(=O)OC)cc2ncn(CCc3ccccc3)c12", "note": "(stereo unspecified)", "values": [{"measurement": "bacterial growth OD600", "setting": "polymyxin B 0.75 µg/mL", "result": 0.887}]}
{"smiles": "Fc1ccccc1-c1n[nH]c2c1CN(C1CCSC1)CC2", "note": "(stereo unspecified)", "values": [{"measurement": "bacterial growth OD600", "setting": "polymyxin B 0.75 µg/mL", "result": 0.986}]}
{"smiles": "COc1ccc(NC(=O)NC2CC(=O)N(C3CCCCCC3)C2)c(C)c1", "note": "(stereo unspecified)", "values": [{"measurement": "bacterial growth OD600", "setting": "polymyxin B 1 µg/mL", "result": 1}]}
{"smiles": "CCOC(=O)C1(Cc2cccc(Cl)c2)CCCN(C(=O)C2=C(C)OCCO2)C1", "note": "(stereo unspecified)", "values": [{"measurement": "bacterial growth OD600", "setting": "polymyxin B 1 µg/mL", "result": 1.01}]}
{"smiles": "CSc1nc(C(=O)N2CCCC(c3nc(-c4cccnc4)ncc3-c3ccccc3F)C2)cs1", "note": "(stereo unspecified)", "values": [{"measurement": "bacterial growth OD600", "setting": "polymyxin B 0.75 µg/mL", "result": 0.002}]}
{"smiles": "O=C(CCCc1ccccc1)N1CCOc2ccc(CN3CCN(c4ccc(F)cc4)CC3)cc2C1", "values": [{"measurement": "bacterial growth OD600", "setting": "polymyxin B 0.75 µg/mL", "result": 0.591}]}
{"smiles": "COc1cc(CN2CCCC(CO)(Cc3cccc(Cl)c3)C2)cc(OC)c1", "note": "(stereo unspecified)", "values": [{"measurement": "bacterial growth OD600", "setting": "polymyxin B 1 µg/mL", "result": 0.549}]}
{"smiles": "COC1CCCN(C(=O)c2csc3nc(-c4cccc(C(F)(F)F)c4)cn23)C1", "note": "(stereo unspecified)", "values": [{"measurement": "bacterial growth OD600", "setting": "polymyxin B 0.75 µg/mL", "result": 0.536}]}
{"smiles": "COCCN1CCCC2(CCN(Cc3cc4c(cc3Cl)OCO4)C2)C1", "note": "(stereo unspecified)", "values": [{"measurement": "bacterial growth OD600", "setting": "polymyxin B 1 µg/mL", "result": 0.86}]}
{"smiles": "C=CCS(=O)(=O)N1CCCC(Cc2ccccc2C)(C(=O)OCC)C1", "note": "(stereo unspecified)", "values": [{"measurement": "bacterial growth OD600", "setting": "polymyxin B 1 µg/mL", "result": 0.883}]}
